Here are results for 40 compounds from article PMC12040169 (PLOS Biology, 2025).

The other results are listed elsewhere or left out.

For this assay, the system named is T1, CTL2-GFP (C. trachomatis L2/434/Bu, GFP-expressing).
T1 construct: L2/434/Bu, GFP-expressing
Also noted: species or system HeLa; Intracellular C. trachomatis growth in HeLa cells, bulk GFP fluorescence relative to DMSO. Conditions: bulk GFP, single well; 28.5 h, 10 µM; inhibitor.
Take `Cc1noc(CN2CCN(c3ccc4nnc(C(F)(F)F)n4n3)CC2)n1` [CBK305566]: the “% of control remaining” value is listed as 160.94%.
Consider `CCN(CC(O)COc1ccc2ccccc2c1)S(=O)(=O)O` (stereo not shown) [CBK261113K], for which the “% of control remaining” value is 119.718%.
In the case of `O=C(Cn1cccn1)Nc1ccc2c(c1)CN(Cc1ccccc1)C2` [CBK281829] it was 150.447%; in that of `O=C(CC1NCCNC1=O)Nc1ccc2c(c1)OCCO2` (stereo not shown) [CBK266837], 131.466%.
To `COc1ccc(CCNC(=O)C(=O)Nc2ccc(C)c(C)c2)cc1` [CBK263222] belongs 105.364%.
To `CC(c1ccco1)N(C)Cc1c[nH]nc1-c1ccc(O)cc1` (stereo not shown) [CBK283303] belongs 119.019%.
Turning to `O=C(CCCN1C(=O)/C(=C/c2ccc3c(c2)OCO3)SC1=S)Nc1ccc([N+](=O)[O-])cc1` [CBK264623], the “% of control remaining” value is on record as 97.0491%.
`CC1=NN(c2ccc([N+](=O)[O-])cc2)C(=O)/C1=C/NCc1ccc(S(N)(=O)=O)cc1` [CBK262670]: the “% of control remaining” value is listed as 106.991%.
Take `Nc1ncc(-c2cccc(Br)c2)nc1NCCCO` [CBK063603]: the “% of control remaining” value is listed as 141.248%.
In the case of `COc1cc(/C=N/c2ccc(/N=C/c3cc(Br)c(O)c(OC)c3)cc2)cc(Br)c1O` [CBK261843] it was 100%.
In the case of `Cc1cccc(-c2csc3c(=O)[nH]c(N4CCC(C(=O)N5CCOCC5)CC4)nc23)c1` [CBK215644], the “% of control remaining” value amounted to 177.158%.
`Cc1ccc(CC(C#N)Sc2nc(CN3CCOCC3)nc3ccccc23)cc1` (stereo not shown) [CBK298321]: the “% of control remaining” value was found to be 120.02%.
Regarding `Cn1cc(CC2CCN(Cc3ccncc3)C2)cn1` (stereo not shown) [CBK304796], the “% of control remaining” value is 114.967%.
To `Cc1cc2c(o1)c1cnn(CC(=O)N(C(C)C)C(C)C)c(=O)c1n2C` [CBK282392] belongs 133.925%; to `CCC1CCCCN1C(=O)c1cccc(C)n1` (stereo not shown) [CBK076750], 112.959%; to `COc1ccc(S(=O)(=O)N2CCOCC2)cc1C(=O)Nc1ccc2c(c1)OCO2` [CBK265548], 110.664%.
As to `Cc1ccncc1C(=O)NCc1ccccc1` [CBK200193], the “% of control remaining” value is reported as 102.734%.
On to `COc1cc(CNC2CCCc3c2cnn3C)cc(OC)c1` (stereo not shown) [CBK304306C], for which the “% of control remaining” value is 140.178%.
In the case of `Nc1ncc(-c2ccc(C(=O)N3CCOCC3)cc2)nc1-c1cccnc1` [CBK126356], the “% of control remaining” value worked out at 115.086%.
`COc1cccc(NC(=O)CC(CN2CCN(Cc3ccccn3)CC2)C(=O)O)c1` (stereo not shown) [CBK286735]: the “% of control remaining” value is 128.826%.
Turning to `CC(C)Nc1nc2ccccc2nc1OCCC#N` [CBK115735], the “% of control remaining” value was 109.352%.
As to `COc1ccc(C(=O)NC(N2CCCCC2)C(Cl)(Cl)Cl)cc1` (stereo not shown) [CBK087021], the “% of control remaining” value was 100%.
In the case of `c1coc(-c2cc(Nc3ccc4[nH]ccc4c3)ncn2)c1` [CBK090862] it was 97.8709%; in that of `O=S(=O)(Nc1nc(CCNCCO)cs1)c1ccc(Oc2ccccc2)cc1` [CBK034632], 103.614%.
For the compound `CCOC(=O)c1cccnc1-c1cccc(C(N)=O)c1` [CBK149239], the “% of control remaining” value is 125.417%.
For `O=S(=O)(Nc1nccnc1N1CCN(c2ccccc2)CC1)c1ccc(F)cc1` [CBK048706], the “% of control remaining” value was 111.794%.
Take `COC(=O)CC1(C)C(=O)CCC2(C)C1=CCc1ccccc12` (stereo not shown) [CBK006547]: the “% of control remaining” value is reported as 123.839%.
To `O=C(CC1CCCC1)NCCn1nc(-c2cccs2)oc1=O` [CBK282386] belongs 137.031%; to `O=[N+]([O-])c1cc(F)ccc1Oc1cccc(Cl)c1Cl` [CBK002604], 107.461%.
For the compound `CN1CCCN(c2cncc(-c3cccnc3)n2)CC1` [CBK037215], the “% of control remaining” value amounted to 143.554%.
As for `CN(CC(=O)NNC(=O)c1cccs1)S(=O)(=O)c1ccc2ccccc2c1` [CBK267409], the “% of control remaining” value worked out at 117.544%.
To `COc1ncc(-c2ccc(NCCn3cc[nH]c3=O)nc2)c(OC)n1` [CBK037719] belongs 110.31%.
`CC1(C)CC(N(Cc2ccccc2)C(=O)Cc2ccco2)CCO1` (stereo not shown) [CBK019561]: the “% of control remaining” value is 110.506%.
Consider `O=[N+]([O-])c1ccc2[nH]c3c(c2c1)CCCC3NC1CCN(CCc2ccccc2)CC1` (stereo not shown) [CBK262874], for which the “% of control remaining” value was determined as 24.7593%.
On to `CC(CNS(=O)(=O)c1ccc(N2CCCC2=O)cc1)Cn1cccn1` (stereo not shown) [CBK304656], for which the “% of control remaining” value was found to be 108.614%.
`Cc1ccc(-n2c(=O)[nH]cc(C(=O)Nc3cccc(Cl)c3C)c2=O)cc1C` [CBK287551]: the “% of control remaining” value worked out at 135.617%.
On to `c1csc(N2CCCN(c3nccn4cnnc34)CC2)n1` [CBK305190], for which the “% of control remaining” value came to 104.872%.
In the case of `CCOc1cccc(NC(=O)/C(C#N)=C\c2cc(C)n(-c3ccc4c(c3)OCO4)c2C)c1` [CBK263191] it was 120.969%.
With `Cc1oc2ccc(O)cc2c1C(=O)N(C)CCN1CCCCC1` [CBK282158], the “% of control remaining” value was determined as 128.374%.
In the case of `Cn1cc(C2CNCCN2C(=O)c2coc3ccccc23)cn1` (stereo not shown) [CBK304270C] it was 104.168%.
